Values from PubChem BioAssay AID1259254 (NCATS, 2017)

Aim: 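Gene knock-downs that lead to re-replication, shown by excess G2 DNA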 (primary screen)
Cells: human HCT116 colorectal cancer cells
Knock-down reagent: single siRNA against human genes
Timing: 3 days
Measured: 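Imaged Hoechst DNA stain sorts each cell into a cycle phase by DNA amount; per plate, G2 fraction set to 0% for non-targeting and 100% for GMNN siRNA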
Direction: G2 robust z-score: higher = more G2 cells, more excess DNA replication
Call rule: 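Active siRNAs have a G2 robust z of 5 or more median absolute deviations over the median, which in these data means about 38% or higher of GMNN control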
The deposit covers about 59,000 reagents; shown is an unselected part. About 1,550 of all reagents (2.6%) count as active. 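G2 share is only a proxy for re-replication; each gene was hit by three separate siRNAs, and active genes were retested.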 Reagents against one gene are numbered here. Not all columns of the deposit are shown. Not given: the amount of reagent.

How did the screen score UTP6 #1?
G2 robust z-score: 2.11; outcome: inactive

Which result is listed for UTP6 #2?
G2 robust z-score: 2.07; outcome: inactive

How did the screen score UTP6 #3?
G2 robust z-score: 5.46; outcome: active

With WNK1 #1, what was measured?
G2 robust z-score: -0.467; outcome: inactive

Which result is listed for WNK1 #2?
G2 robust z-score: 2.81; outcome: inactive

With WNK1 #3, what does the deposit list?
G2 robust z-score: 2.41; outcome: inactive

How did the screen score WNK1 #4?
G2 robust z-score: -0.537; outcome: inactive

What is on record for WNK1 #5?
G2 robust z-score: -0.0889; outcome: inactive

With WNK1 #6, what was measured?
G2 robust z-score: -0.705; outcome: inactive

With PPCDC #1, what was measured?
G2 robust z-score: -0.31; outcome: inactive

With PPCDC #2, how do the results read?
G2 robust z-score: 0.501; outcome: inactive

For PPCDC #3, how do the results read?
G2 robust z-score: 4.7; outcome: inactive

Part of the list above, reformatted:
target gene,reagent no.,G2 robust z-score,outcome
WNK1,2,2.81,inactive
WNK1,3,2.41,inactive
WNK1,4,-0.537,inactive

Additional reagents follow.
What is on record for RPL21P20 #1?
G2 robust z-score: 3.29; outcome: inactive

For RPL21P20 #2, what was measured?
G2 robust z-score: 1.2; outcome: inactive

For RPL21P20 #3, how do the results read?
G2 robust z-score: 3.27; outcome: inactive

Which result is listed for CEP15 #1?
G2 robust z-score: 2.39; outcome: inactive

How did the screen score CEP15 #2?
G2 robust z-score: -0.208; outcome: inactive

What did the screen give for CEP15 #3?
G2 robust z-score: 0.605; outcome: inactive

How did the screen score ELN #1?
G2 robust z-score: -0.58; outcome: inactive

Which result is listed for ELN #2?
G2 robust z-score: 2.4; outcome: inactive

For ELN #3, how do the results read?
G2 robust z-score: -0.339; outcome: inactive

For CCDC85B #1, what was measured?
G2 robust z-score: -1.69; outcome: inactive

What is on record for CCDC85B #2?
G2 robust z-score: -0.032; outcome: inactive

How did the screen score CCDC85B #3?
G2 robust z-score: -0.298; outcome: inactive

Which result is listed for SIGLEC1 #1?
G2 robust z-score: -0.8; outcome: inactive

For SIGLEC1 #2, what does the deposit list?
G2 robust z-score: -1.26; outcome: inactive

With SIGLEC1 #3, what was measured?
G2 robust z-score: 2.89; outcome: inactive

Which result is listed for ZXDA #1?
G2 robust z-score: 0.689; outcome: inactive

How did the screen score ZXDA #2?
G2 robust z-score: -0.308; outcome: inactive

What is on record for ZXDA #3?
G2 robust z-score: 0.574; outcome: inactive
